Assay results as given in publication PMC4359269.
No constants are given. Whether binding was seen depends on the method and setting. Binding seen in cells or lysates may run through a third protein. Some entries that bind do so weakly or less than the wild type. Where a sequence is shown, tags or fusion partners need not be part of it.

Amino acid sequences for entries named in this document (tags omitted).
UniProt O95863: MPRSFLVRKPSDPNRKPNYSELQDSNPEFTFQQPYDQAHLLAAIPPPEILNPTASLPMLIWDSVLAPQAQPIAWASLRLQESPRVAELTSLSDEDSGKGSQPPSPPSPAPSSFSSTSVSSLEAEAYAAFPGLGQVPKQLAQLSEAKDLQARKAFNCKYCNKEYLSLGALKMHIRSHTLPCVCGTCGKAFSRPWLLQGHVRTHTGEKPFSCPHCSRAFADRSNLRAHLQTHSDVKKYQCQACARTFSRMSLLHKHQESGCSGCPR
UniProt Q15672: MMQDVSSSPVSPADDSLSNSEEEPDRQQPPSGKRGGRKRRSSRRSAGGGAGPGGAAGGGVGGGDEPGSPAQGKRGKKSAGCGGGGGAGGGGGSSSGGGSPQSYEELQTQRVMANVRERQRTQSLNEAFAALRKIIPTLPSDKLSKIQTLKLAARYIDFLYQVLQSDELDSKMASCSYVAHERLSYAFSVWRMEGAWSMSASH

T1: GST-Fbxo45 (human) (UniProt P0C2W1)
T1 sequence: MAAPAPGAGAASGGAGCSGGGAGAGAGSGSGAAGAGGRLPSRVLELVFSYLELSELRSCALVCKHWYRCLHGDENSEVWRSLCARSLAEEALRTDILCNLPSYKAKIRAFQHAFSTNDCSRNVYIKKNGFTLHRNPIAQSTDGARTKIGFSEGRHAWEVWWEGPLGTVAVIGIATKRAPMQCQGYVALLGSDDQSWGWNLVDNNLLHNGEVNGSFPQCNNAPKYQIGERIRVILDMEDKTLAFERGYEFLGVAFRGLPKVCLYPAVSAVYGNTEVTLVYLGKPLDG

T2: 3xFlag-Zeb2 (human) (UniProt O60315)
T2 sequence: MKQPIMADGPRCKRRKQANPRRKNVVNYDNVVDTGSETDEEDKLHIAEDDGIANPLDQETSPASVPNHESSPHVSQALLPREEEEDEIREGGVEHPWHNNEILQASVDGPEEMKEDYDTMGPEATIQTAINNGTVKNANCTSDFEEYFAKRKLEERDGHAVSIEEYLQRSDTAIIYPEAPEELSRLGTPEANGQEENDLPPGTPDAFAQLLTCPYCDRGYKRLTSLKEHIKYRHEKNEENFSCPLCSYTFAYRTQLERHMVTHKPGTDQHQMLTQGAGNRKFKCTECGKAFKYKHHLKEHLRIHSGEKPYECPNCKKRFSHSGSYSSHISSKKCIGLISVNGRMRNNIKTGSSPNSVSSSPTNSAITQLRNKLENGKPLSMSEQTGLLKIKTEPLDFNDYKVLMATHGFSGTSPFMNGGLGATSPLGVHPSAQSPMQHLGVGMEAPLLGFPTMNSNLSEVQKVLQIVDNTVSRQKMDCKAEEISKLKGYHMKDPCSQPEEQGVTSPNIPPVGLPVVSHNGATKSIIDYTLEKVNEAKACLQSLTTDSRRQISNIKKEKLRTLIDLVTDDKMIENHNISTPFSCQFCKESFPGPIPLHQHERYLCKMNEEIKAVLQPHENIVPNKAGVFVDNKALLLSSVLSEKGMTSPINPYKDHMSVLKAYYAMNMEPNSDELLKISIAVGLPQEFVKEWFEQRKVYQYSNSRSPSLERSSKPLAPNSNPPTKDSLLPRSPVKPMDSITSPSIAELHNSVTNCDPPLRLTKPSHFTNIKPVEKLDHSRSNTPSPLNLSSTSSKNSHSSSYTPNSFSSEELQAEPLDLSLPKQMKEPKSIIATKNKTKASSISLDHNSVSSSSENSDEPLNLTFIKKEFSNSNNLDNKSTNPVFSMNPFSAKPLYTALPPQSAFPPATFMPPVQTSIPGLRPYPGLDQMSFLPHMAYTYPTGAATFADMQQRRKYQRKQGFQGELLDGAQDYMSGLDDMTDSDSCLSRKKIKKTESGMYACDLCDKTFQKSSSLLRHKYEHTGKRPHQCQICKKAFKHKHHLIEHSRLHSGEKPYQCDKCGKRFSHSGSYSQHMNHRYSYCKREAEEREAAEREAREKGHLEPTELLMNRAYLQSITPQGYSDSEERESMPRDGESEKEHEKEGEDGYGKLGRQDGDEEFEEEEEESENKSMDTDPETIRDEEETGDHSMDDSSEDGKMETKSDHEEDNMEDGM

T3: Flag-tagged Snai2 (UniProt O43623)
T3 sequence: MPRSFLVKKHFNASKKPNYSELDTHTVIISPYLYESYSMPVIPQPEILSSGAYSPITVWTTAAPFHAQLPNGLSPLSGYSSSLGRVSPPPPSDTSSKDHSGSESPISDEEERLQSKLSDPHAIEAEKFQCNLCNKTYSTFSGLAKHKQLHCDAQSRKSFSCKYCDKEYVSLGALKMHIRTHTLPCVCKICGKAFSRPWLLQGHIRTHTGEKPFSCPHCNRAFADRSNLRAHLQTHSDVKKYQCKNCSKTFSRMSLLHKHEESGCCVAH

T4: 3xFlag-Zeb1 (human) (UniProt P37275)
T4 sequence: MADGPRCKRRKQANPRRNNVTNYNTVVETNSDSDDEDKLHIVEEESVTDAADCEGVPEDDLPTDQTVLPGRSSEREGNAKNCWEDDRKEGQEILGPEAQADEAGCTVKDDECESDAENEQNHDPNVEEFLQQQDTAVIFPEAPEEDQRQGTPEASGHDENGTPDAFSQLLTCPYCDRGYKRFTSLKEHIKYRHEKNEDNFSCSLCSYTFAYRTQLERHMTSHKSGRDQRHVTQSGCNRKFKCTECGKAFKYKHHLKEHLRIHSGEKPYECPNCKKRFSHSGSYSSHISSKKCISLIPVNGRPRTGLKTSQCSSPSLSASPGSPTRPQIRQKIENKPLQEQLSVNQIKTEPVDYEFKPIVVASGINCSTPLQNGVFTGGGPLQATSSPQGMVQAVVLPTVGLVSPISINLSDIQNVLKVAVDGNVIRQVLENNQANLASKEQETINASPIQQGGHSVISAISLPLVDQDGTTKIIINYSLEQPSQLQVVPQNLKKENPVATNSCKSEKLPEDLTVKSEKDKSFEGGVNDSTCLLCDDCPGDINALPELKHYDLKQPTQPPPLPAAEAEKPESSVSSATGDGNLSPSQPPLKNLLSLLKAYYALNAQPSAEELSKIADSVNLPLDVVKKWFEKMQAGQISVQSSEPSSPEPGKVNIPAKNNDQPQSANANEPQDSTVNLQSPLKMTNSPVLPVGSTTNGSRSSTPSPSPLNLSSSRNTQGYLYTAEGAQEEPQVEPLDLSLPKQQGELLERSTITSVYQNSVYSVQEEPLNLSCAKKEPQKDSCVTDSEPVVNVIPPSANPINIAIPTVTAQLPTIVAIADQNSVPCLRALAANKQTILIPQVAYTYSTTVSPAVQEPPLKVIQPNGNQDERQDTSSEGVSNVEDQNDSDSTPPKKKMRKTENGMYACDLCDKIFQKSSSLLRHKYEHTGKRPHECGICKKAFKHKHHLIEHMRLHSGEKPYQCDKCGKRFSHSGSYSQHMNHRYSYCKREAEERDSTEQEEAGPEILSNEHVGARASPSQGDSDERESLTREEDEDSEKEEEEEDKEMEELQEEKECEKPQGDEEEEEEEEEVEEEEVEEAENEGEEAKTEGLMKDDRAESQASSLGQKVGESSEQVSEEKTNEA


Experiments:
GST-Fbxo45 (human) [1] = biological target: T1, GST-Fbxo45 (human); test: pull-down; purified GST-tagged Fbxo45 forms and Glutathione sepharose 4B beads incubated with HeLa cell extract in RIPA buffer (50 mM Tris-HCl pH 7.4, 150 mM NaCl, 0.5% NP-40) at 4°C overnight; washed with RIPA buffer; immunoblot; only the target purified
GST-Fbxo45 (human) [2] = biological target: T1, GST-Fbxo45 (human); test: pull-down; purified GST-tagged Fbxo45 forms with exogenously expressed Snai1, Snai2 or Twist1 from HEK293T cells (Supplementary Fig S4); only the target purified
Flag-tagged Snai1 = Flag-tagged Snai1 (UniProt O95863); test: co-IP; lysates of co-transfected HEK293T cells, modified RIPA buffer (50 mM Tris-HCl pH 7.4, 150 mM NaCl, 0.5% NP-40); IP with anti-Flag M2 (Figure 3C also anti-HA), immunoblot
3xFlag-Zeb2 (human) = biological target: T2, 3xFlag-Zeb2 (human); test: as above
Flag-tagged Twist1 = Flag-tagged Twist1 (UniProt Q15672); test: as above
Flag-tagged Snai2 = biological target: T3, Flag-tagged Snai2; test: as above
3xFlag-Zeb1 (human) = biological target: T4, 3xFlag-Zeb1 (human); test: as above

Molecule | binding (GST-Fbxo45 (human) [1]) | binding (GST-Fbxo45 (human) [2]) | further results
Flag-tagged Twist1 (from UniProt Q15672 1-202) |  | binds | 
Flag-tagged Snai1 (from UniProt O95863 1-264) |  | binds | 
HA-Fbxo45 (protein, UniProt P0C2W1 1-286) MAAPAPGAGAASGGAGCSGGGAGAGAGSGSGAAGAGGRLPSRVLELVFSYLELSELRSCALVCKHWYRCLHGDENSEVWRSLCARSLAEEALRTDILCNLPSYKAKIRAFQHAFSTNDCSRNVYIKKNGFTLHRNPIAQSTDGARTKIGFSEGRHAWEVWWEGPLGTVAVIGIATKRAPMQCQGYVALLGSDDQSWGWNLVDNNLLHNGEVNGSFPQCNNAPKYQIGERIRVILDMEDKTLAFERGYEFLGVAFRGLPKVCLYPAVSAVYGNTEVTLVYLGKPLDG |  |  | binding (Flag-tagged Snai1): binds; binding (3xFlag-Zeb2 (human)): binds; binding (Flag-tagged Twist1): binds; binding (Flag-tagged Snai2): binds; binding (3xFlag-Zeb1 (human)): binds
Flag-tagged Snai2 (protein, UniProt O43623 1-268) MPRSFLVKKHFNASKKPNYSELDTHTVIISPYLYESYSMPVIPQPEILSSGAYSPITVWTTAAPFHAQLPNGLSPLSGYSSSLGRVSPPPPSDTSSKDHSGSESPISDEEERLQSKLSDPHAIEAEKFQCNLCNKTYSTFSGLAKHKQLHCDAQSRKSFSCKYCDKEYVSLGALKMHIRTHTLPCVCKICGKAFSRPWLLQGHIRTHTGEKPFSCPHCNRAFADRSNLRAHLQTHSDVKKYQCKNCSKTFSRMSLLHKHEESGCCVAH |  | binds | 

Second part, led by results:

binding (GST-Fbxo45 (human) [1]) | binding (GST-Fbxo45 (human) [2]) | Molecule | further results
binds |  | endogenous Snai1 (from UniProt O95863 1-264) | 
binds |  | endogenous Snai2 (protein, UniProt O43623 1-268) MPRSFLVKKHFNASKKPNYSELDTHTVIISPYLYESYSMPVIPQPEILSSGAYSPITVWTTAAPFHAQLPNGLSPLSGYSSSLGRVSPPPPSDTSSKDHSGSESPISDEEERLQSKLSDPHAIEAEKFQCNLCNKTYSTFSGLAKHKQLHCDAQSRKSFSCKYCDKEYVSLGALKMHIRTHTLPCVCKICGKAFSRPWLLQGHIRTHTGEKPFSCPHCNRAFADRSNLRAHLQTHSDVKKYQCKNCSKTFSRMSLLHKHEESGCCVAH | 
binds |  | endogenous Zeb2 (protein, UniProt O60315 1-1214) MKQPIMADGPRCKRRKQANPRRKNVVNYDNVVDTGSETDEEDKLHIAEDDGIANPLDQETSPASVPNHESSPHVSQALLPREEEEDEIREGGVEHPWHNNEILQASVDGPEEMKEDYDTMGPEATIQTAINNGTVKNANCTSDFEEYFAKRKLEERDGHAVSIEEYLQRSDTAIIYPEAPEELSRLGTPEANGQEENDLPPGTPDAFAQLLTCPYCDRGYKRLTSLKEHIKYRHEKNEENFSCPLCSYTFAYRTQLERHMVTHKPGTDQHQMLTQGAGNRKFKCTECGKAFKYKHHLKEHLRIHSGEKPYECPNCKKRFSHSGSYSSHISSKKCIGLISVNGRMRNNIKTGSSPNSVSSSPTNSAITQLRNKLENGKPLSMSEQTGLLKIKTEPLDFNDYKVLMATHGFSGTSPFMNGGLGATSPLGVHPSAQSPMQHLGVGMEAPLLGFPTMNSNLSEVQKVLQIVDNTVSRQKMDCKAEEISKLKGYHMKDPCSQPEEQGVTSPNIPPVGLPVVSHNGATKSIIDYTLEKVNEAKACLQSLTTDSRRQISNIKKEKLRTLIDLVTDDKMIENHNISTPFSCQFCKESFPGPIPLHQHERYLCKMNEEIKAVLQPHENIVPNKAGVFVDNKALLLSSVLSEKGMTSPINPYKDHMSVLKAYYAMNMEPNSDELLKISIAVGLPQEFVKEWFEQRKVYQYSNSRSPSLERSSKPLAPNSNPPTKDSLLPRSPVKPMDSITSPSIAELHNSVTNCDPPLRLTKPSHFTNIKPVEKLDHSRSNTPSPLNLSSTSSKNSHSSSYTPNSFSSEELQAEPLDLSLPKQMKEPKSIIATKNKTKASSISLDHNSVSSSSENSDEPLNLTFIKKEFSNSNNLDNKSTNPVFSMNPFSAKPLYTALPPQSAFPPATFMPPVQTSIPGLRPYPGLDQMSFLPHMAYTYPTGAATFADMQQRRKYQRKQGFQGELLDGAQDYMSGLDDMTDSDSCLSRKKIKKTESGMYACDLCDKTFQKSSSLLRHKYEHTGKRPHQCQICKKAFKHKHHLIEHSRLHSGEKPYQCDKCGKRFSHSGSYSQHMNHRYSYCKREAEEREAAEREAREKGHLEPTELLMNRAYLQSITPQGYSDSEERESMPRDGESEKEHEKEGEDGYGKLGRQDGDEEFEEEEEESENKSMDTDPETIRDEEETGDHSMDDSSEDGKMETKSDHEEDNMEDGM | 
